According to patent US20240166738A1 (priority 2021, published 2024):
Some results were stated once for a whole list of compounds, not compound by compound.

Each molecule was assayed on SARS-CoV-2 coronavirus (Washington 2019 virus strain) in VeroE6 cells. Settings: antibody ~100 μg/ml for 1 hour before SARS-CoV-2 (Washington 2019 strain), FIG. 1.
Type: cell-based

Molecule	fold-change in cell survival compared to that observed in virus-infected control cells
TM-65: anti-TMEM106B monoclonal antibody; VH SEQ ID NO: 471, VL SEQ ID NO: 507 (antibody, V domains shown, Variable Heavy Chain -- TM-65; Variable Light Chain -- TM-65) VH: QVQLQQPGAEFVKPGASVRLSCKTSGYTFTSSWMHWVKQRPGQGLEWIGEINPKNGGTNYNEKFKTKATLTVDKSSNTAYMQLSSLTSEDSAVYYCTIPTWFTYWGQGTLVTVSS VL: DIQMNQSPSSLSASLGDTITITCRASQNINIWLSWYQQKPGNVPKLLIYKASNLHTGVPSRFSGSGSGTGFTLTISSLQPEDIATYYCLQGQSYPYTFGGGTKLGIK	≥ 1.5 fold
TM-71: anti-TMEM106B monoclonal antibody; VH SEQ ID NO: 476, VL SEQ ID NO: 512 (antibody, V domains shown, Variable Heavy Chain -- TM-71; Variable Light Chain -- TM-71, TM-72) VH: EVQLVESGGALVKPGGSLKLSCAASGFTFSNYAMSWVRQTPEKRLEWVATIGYGGSYSYYPDSVKGRFTISRDNAKNTLYLQMSSLRSEDTALYYCARQDSNYEGVWFAYWGQGTLVTVSS VL: DIVMTQAAPSVPVTPGESVSISCRSSKSLLHTNGNTYLFWFIQRPGQSPHLLIYRKSNLASGVPDRFSGSGSGTAFTLRISRVEAEDVGVYYCMQHLEYPFTFGSGTKLEIK	≥ 1.5 fold
TM-84: anti-TMEM106B monoclonal antibody; VH SEQ ID NO: 489, VL SEQ ID NO: 524 (antibody, V domains shown, Variable Heavy Chain -- TM-84; Variable Light Chain -- TM-84) VH: QVQLQQSGAELVKPGASVKMSCKASGYTFTTFPIEWMKQNHGKSLEWIGNFHPYNDDTKYNEKFKGKATLTVEKSSSTVYLELSRLTSDDSAVYYCARYFYGGMDYWGQGTSVTVSS VL: DIQMTQSPASLSVSVGETVTITCRASENIYSSLGWYHQKQGKSPQLLVFAATNLADGVPSRFSGSGSGTQYSLKINSLQSEDFGTYYCQHLWSVPWTFGGGTKLEIK	≥ 1.5 fold
TM-3: anti-TMEM106B monoclonal antibody; CDR-H1-3 SEQ ID NO: 4, 37, 80; CDR-L1-3 SEQ ID NO: 122, 162, 186 (antibody, V domains shown) VH: QVTLKESGPGIVQPSQTLSLTCSFSGFSLNTLGRGVGWIRQPSGKGLEWLAKIWWNDDKFYYPALKSRLTISKDTSKNQIFLKIANVDTADSATYYCARIAGGTGAAYWGQGTTLTVSS VL: DIVMTQAAFSNPVTLGTSASISCRSSKSLLHSNGITYLYWYLQKPGQSPQLLISQMSSLASGVPDRFSSGGSGTDFTLRISRVEAEDVGVFYCAQNLELPWTFGGGTKLELK	≥ 1.5 fold
TM-34: anti-TMEM106B monoclonal antibody; CDR-H1-3 SEQ ID NO: 23, 65, 108; CDR-L1-3 SEQ ID NO: 147, 161, 211 (antibody, V domains shown) VH: EVQLVESGGGLVKPGGSLKLSCAASGFSFSDSGMDWVRQAPEKGLEWFAYISSGSSTTHYADTVKGRFIISRDNAKNTLFLQMTSLRSEDTAMYYCVRRDGNYWYFDVWGTGTTVTVSS VL: QIVLSQSPVILSASPGEKVTMTCRATSSVTYMHWYQLKPGSSPKPWIYATSNLASGVPARFSGSGSGTSYSLTISRVEAEDAATYYCQQWSSNPYTFGGGTKLEIK	≥ 1.5 fold
TM-39: anti-TMEM106B monoclonal antibody; CDR-H1-3 SEQ ID NO: 26, 68, 111; CDR-L1-3 SEQ ID NO: 150, 180, 213 (antibody, V domains shown) VH: HVQRQQSGTELAKPGASVKLSCKTSGYTFTDYWMHWIKQRPGQGLEWIGFINPSSGYTKYNQNFKDKATLTADKSSSTAYMQLSSLTYEDSAVFYCAREAGSISDWYFDVWGTGTTVTVSS VL: DIVMTQAAPSIPVTPGESVSISCRSSKTLLNSNGNTYLYWFLQRPGQPPQLLIYRMSNLASGVPDRFSGSGSGTAFTLRISRVEAEDVGVYYCMQHLDYPYTFGGGTQLEIK	≥ 1.5 fold
TM-63: anti-TMEM106B monoclonal antibody; VH SEQ ID NO: 469, VL SEQ ID NO: 505 (antibody, V domains shown, Variable Heavy Chain -- TM-63; Variable Light Chain -- TM-63) VH: QVQLQQPGAELVKFGASVKLSCKASGYTFTSFWMHWVKQRPGQGLEWIGNIDPSDSETHYSQKFKDKATLTVDRSSNTAYIQLSSLTSEDSAVYYCARSSNWDNFDYWGQGTTVTVSS VL: DIVMTQASPSVSVTPGESVSISCRSSQSLLHVNGNTYLYWFLQRPGRSPRLLIYRMSNLASGVPDRFSGSGSGTAFTLRISRVEAEDVGVYYCMQHLQYPFSFGSGTKLEMK	≥ 1.5 fold
